From patent US20250353911A1
Positions count from the first letter of the chain named. No constants are given. Whether binding was seen depends on the method and setting. Binding can be weak; no strength is given. One block for each binder: values may come before it.

What was measured:
[1] = target: human FcRn on primary human monocytes (PBMC) (human); assay: flow cytometry on fixed and permeabilized human PBMC, monocyte gate, pH 7.4 and pH 6
[2] = target: human FcRn on primary human monocytes (PBMC) (human); assay: flow cytometry, fixed and permeabilized human PBMC, gated monocytes, pH 6, AF647 detection antibody
[3] = target: human FcRn on primary human monocytes (PBMC) (human); assay: flow cytometry, fixed and permeabilized human PBMC, gated monocytes, pH 7.4, AF647 detection antibody
[4] = target: cynomolgus monkey FcRn on monocytes (cynomolgus monkey); assay: receptor occupancy by flow cytometry on monocytes from whole blood of dosed cynomolgus monkeys

binding [1]: binds
binding [2]: binds
binding [3]: binds
binding [4]: binds
B1: cx11558 (B10a.v2.1 VHH x hz4A01v51 VHH) (bispecific antibody)
chain: EVQLLESGGGEVQPGGSLRLSCAASGSIANVDLMAWHRQAPGKQREPIAVINDAGSTYYAESVKGRFTISRDNAKNTLYLQMNSLRAEDTAVYYCNTATWRGGERYADWGQGTLVTVKPGSGGGSEVQLVESGGGEVQPGGSLRLSCAASGFTFSTSGMVWVRQAPGKGLEWVSTISDDARITVYAESVKGRFTISRDNAKNTVYLQMNSLRAEDTAVYYCATYRAGSRIGSYEDYYRGQGTLVTVKPGG

binding [4]: binds
B2: cx12007 (B10a.v2.4 VHH x hz4A01v51.12 VHH) (bispecific antibody)
chain: B1 chain with E11K, K118E, V130L, E136K, K247E

binding [4]: binds
B3: cx11642 (B10a.v2.1 VHH x B10a.v2.1 VHH x hz4A01v51 VHH) (bispecific antibody)
chain: EVQLLESGGGEVQPGGSLRLSCAASGSIANVDLMAWHRQAPGKQREPIAVINDAGSTYYAESVKGRFTISRDNAKNTLYLQMNSLRAEDTAVYYCNTATWRGGERYADWGQGTLVTVKPGSGGGSEVQLLESGGGEVQPGGSLRLSCAASGSIANVDLMAWHRQAPGKQREPIAVINDAGSTYYAESVKGRFTISRDNAKNTLYLQMNSLRAEDTAVYYCNTATWRGGERYADWGQGTLVTVKPGSGGGSEVQLVESGGGEVQPGGSLRLSCAASGFTFSTSGMVWVRQAPGKGLEWVSTISDDARITVYAESVKGRFTISRDNAKNTVYLQMNSLRAEDTAVYYCATYRAGSRIGSYEDYYRGQGTLVTVKPGG
